# Reference: PubChem BioAssay AID504467 (National Center for Advancing Translational Sciences (NCATS), 2011)
# The campaign covered roughly 330,000 compounds. About 7,700 (2.3%) were called active. Inconclusive results, whose numbers are uncertain, are shown with a selection of clear calls. The call rests on the fitted dose curve; in most records, active means well fitted inhibition curve with a large enough effect; inconclusive means small, poorly fitted or top-dose-only effect, or effect the other way; inactive means flat fitted curve, though single readings scatter. Potencies of inconclusive entries are doubtful fits and often do not repeat.
# Test: qHTS screen for small molecules that inhibit ELG1-dependent DNA repair in human embryonic kidney (HEK293T) cells expressing luciferase-tagged ELG1; further: nearly all actives have a fitted effect of over 55% in size
# Conditions: HEK293T ELG1-luciferase reporter, luminescence, 16 h, DNA damage induced by 5-fluorouridine; activity change, negative = inhibition: at 46.1 µM (top of the series)
# Summary of the method: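 Cells (2,000 per well) received 5-fluorouridine plus test compound or DMSO and were incubated 16 hr at 37 °C, 5% CO2. Luciferase activity was read by luminescence 30 min after ONE-Glo addition; signal suppression marked inhibition of damage-induced ELG1 function.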
# On the % scale 0 is the no-effect control and ±100 the full control effect; potency means the concentration at half of the fitted maximal effect.
SMILES,"activity change, negative = inhibition",Potency
O=C(CNC(=O)c1sc2ccccc2c1Cl)NCc1cccc(C(F)(F)F)c1,inactive: 9.16%,
COCc1n[nH]c(=S)n1-c1cccc2ccccc12,inactive: 0.133%,
c1ccc(-c2nnc3sc(-c4cc5ccccc5o4)nn23)cc1,inactive: -0.247%,
C=CCNC(=O)N1CCC(n2nccc2NC(=O)CCc2ccccc2)CC1,,"inconclusive: 16.4 µM [activator, partial curve, poor fit]"
Cc1ccc(C(=O)Nc2ccc(Cl)cc2C(F)(F)F)c(Cl)c1,,"inconclusive: 20.6 µM [activator, partial curve]"
CCOC(=O)N1CCC(n2c(SCC(=O)NCCC3=CCCCC3)nc3ccccc3c2=O)CC1,,"inconclusive: 16.4 µM [inhibitor, single point]"
COc1ccc(/C=C/C(=O)Nc2ccc3c(c2)CCC3)cc1OC,inactive: -19.3%,
CCCc1nn(-c2ccccc2)c2c1C(c1cccs1)C(C#N)=C(N)O2 (configuration not stated),,"inconclusive: 0.206 µM [activator, full curve, poor fit]"
O=C(CSc1ccccc1)NC1=NCCS1,inactive: -8.87%,
COc1ccc(C(=O)NCC(=O)OCC(=O)NC(=O)c2ccc(C(C)(C)C)cc2)cc1OC,,"inconclusive: 23.1 µM [activator, single point]"
C#CCN1C(=O)S/C(=C\c2ccc(-c3ccc(C(=O)O)cc3C)o2)C1=O,,"inconclusive: 9.2 µM [activator, partial curve]"
CCOC(=O)C1=CC[C@H]2c3c(c4ccccc4n3C)C(=O)C1N2C,,"inconclusive: 6.51 µM [activator, full curve, poor fit]"
Cc1[nH]n(-c2ccccc2)c(=O)c1-c1ccccc1,inactive: 17%,
COC(=O)c1c(-c2ccc(S(C)(=O)=O)cc2)sc2ccc(OC)cc12,,"inconclusive: 3.66 µM [activator, partial curve]"
O=C(NCCN1C(=O)C2C3C=CC(C3)C2C1=O)Nc1ccccc1 (configuration not stated),,"inconclusive: 16.4 µM [activator, partial curve, poor fit]"
Cc1ccc(C(C)C)c(OCC(=O)Nc2ccccc2N2CCN(C)CC2)c1,,"inconclusive: 23.1 µM [inhibitor, single point]"
COc1cccc(C2c3[nH]c4ccccc4c3C[C@H]3C(=O)N(c4ccccc4C(=O)NCCCN4CCOCC4)C(=O)N23)c1 (some centres not stated),,"inconclusive: 4.61 µM [inhibitor, partial curve, poor fit]"
CCOc1ccc(-c2cc(C(=O)N3CCCC3)c3ccccc3n2)cc1,,"inconclusive: 4.61 µM [activator, partial curve]"
CC(C)C(=O)Nc1cccc(C(=O)NCc2ccc(S(N)(=O)=O)cc2)c1,,"inconclusive: 20.6 µM [inhibitor, single point]"
CCc1nc2ccccc2n1CC(=O)N1CCN(S(=O)(=O)c2cccc(C(F)(F)F)c2)CC1,,"inconclusive: 9.2 µM [inhibitor, partial curve, poor fit]"
COC(=O)c1nnn(CC(=O)Nc2cc(Cl)ccc2C)c1C(=O)OC,,"inconclusive: 32.6 µM [activator, partial curve, poor fit]"
Cc1nc(NC(=O)CN2CCN(c3cccc(Cl)c3)CC2)sc1C(=O)N(C)C,inactive: -2.45%,
O=c1oc2ccccc2nc1/C=C(O)/C=C/c1ccc(F)cc1,,"inconclusive: 20.6 µM [activator, partial curve, poor fit]"

# Among those listed so far, 13 contain nitrogen in an aromatic ring:
SMILES,"activity change, negative = inhibition",Potency
COCc1n[nH]c(=S)n1-c1cccc2ccccc12,inactive: 0.133%,
c1ccc(-c2nnc3sc(-c4cc5ccccc5o4)nn23)cc1,inactive: -0.247%,
C=CCNC(=O)N1CCC(n2nccc2NC(=O)CCc2ccccc2)CC1,,"inconclusive: 16.4 µM [activator, partial curve, poor fit]"
CCOC(=O)N1CCC(n2c(SCC(=O)NCCC3=CCCCC3)nc3ccccc3c2=O)CC1,,"inconclusive: 16.4 µM [inhibitor, single point]"
CCCc1nn(-c2ccccc2)c2c1C(c1cccs1)C(C#N)=C(N)O2 (configuration not stated),,"inconclusive: 0.206 µM [activator, full curve, poor fit]"
CCOC(=O)C1=CC[C@H]2c3c(c4ccccc4n3C)C(=O)C1N2C,,"inconclusive: 6.51 µM [activator, full curve, poor fit]"
Cc1[nH]n(-c2ccccc2)c(=O)c1-c1ccccc1,inactive: 17%,
COc1cccc(C2c3[nH]c4ccccc4c3C[C@H]3C(=O)N(c4ccccc4C(=O)NCCCN4CCOCC4)C(=O)N23)c1 (some centres not stated),,"inconclusive: 4.61 µM [inhibitor, partial curve, poor fit]"
CCOc1ccc(-c2cc(C(=O)N3CCCC3)c3ccccc3n2)cc1,,"inconclusive: 4.61 µM [activator, partial curve]"
CCc1nc2ccccc2n1CC(=O)N1CCN(S(=O)(=O)c2cccc(C(F)(F)F)c2)CC1,,"inconclusive: 9.2 µM [inhibitor, partial curve, poor fit]"
COC(=O)c1nnn(CC(=O)Nc2cc(Cl)ccc2C)c1C(=O)OC,,"inconclusive: 32.6 µM [activator, partial curve, poor fit]"
Cc1nc(NC(=O)CN2CCN(c3cccc(Cl)c3)CC2)sc1C(=O)N(C)C,inactive: -2.45%,
O=c1oc2ccccc2nc1/C=C(O)/C=C/c1ccc(F)cc1,,"inconclusive: 20.6 µM [activator, partial curve, poor fit]"

# Sorted by length of the SMILES (high to low): some entries from above
SMILES,"activity change, negative = inhibition",Potency
CCOC(=O)N1CCC(n2c(SCC(=O)NCCC3=CCCCC3)nc3ccccc3c2=O)CC1,,"inconclusive: 16.4 µM [inhibitor, single point]"
COC(=O)c1c(-c2ccc(S(C)(=O)=O)cc2)sc2ccc(OC)cc12,,"inconclusive: 3.66 µM [activator, partial curve]"
Cc1[nH]n(-c2ccccc2)c(=O)c1-c1ccccc1,inactive: 17%,

# Additional compounds follow.

SMILES,"activity change, negative = inhibition",Potency
CC1S/C(=N/N=C/c2ccco2)NC1=O (configuration not stated),,"inconclusive: 32.6 µM [activator, partial curve, poor fit]"
O=C(NCc1ccccn1)c1ccc(CNS(=O)(=O)c2cccc(C(F)(F)F)c2)cc1,,"inconclusive: 25.9 µM [inhibitor, single point]"
O=C(Nc1cccc(Cl)c1)OCc1cnc(Cl)s1,inactive: 19%,
CC1=C(C(=O)OCc2ccccc2)C(c2ccccc2Cl)NC(=O)N1C (configuration not stated),,"inconclusive: 18.3 µM [inhibitor, partial curve, poor fit]"
CCc1cc2cc3c(cc2nc1SCC(=O)N1CCN(C(=O)c2ccco2)CC1)OCO3,,"inconclusive: 16.4 µM [inhibitor, partial curve]"
CC1(C)Cc2c(C#N)c(SCc3ccccc3)nc(N3CCOCC3)c2CO1,,active: 2.31 µM
Cc1cccc(C)c1OCc1cc(C(=O)N2CCN(c3ccc(F)cc3)CC2)no1,,"inconclusive: 2.59 µM [activator, partial curve]"
CCOc1ccccc1C1C(C#N)=C(N)Oc2cc(N)ccc21 (configuration not stated),,"inconclusive: 11.6 µM [inhibitor, partial curve, poor fit]"
CCN(C(=O)CN1C(=O)COc2ccc(S(=O)(=O)N3CCCCCC3)cc21)c1cccc(C)c1,,"inconclusive: 29.1 µM [inhibitor, single point]"
O=c1cc(-c2ccc(Cl)cc2)oc(=O)[nH]1,inactive: 0%,
Cc1ncsc1CCC(=O)N1CCCC(Nc2ccc(F)c(F)c2)C1 (configuration not stated),inactive: -6.93%,
COc1ccc(N2CC(NC(=O)NC(C)(C)C)CC2=O)cc1 (configuration not stated),inactive: 2.38%,
CCC(c1nnnn1Cc1ccc2c(c1)OCO2)N1CCN(c2ccccc2)CC1 (configuration not stated),,"inconclusive: 25.9 µM [inhibitor, single point]"
O=C(c1ccc(S(=O)(=O)c2cccc(Cl)c2)c([N+](=O)[O-])c1)N1CCN(Cc2ccccc2)CC1,,"inconclusive: 23.1 µM [inhibitor, partial curve]"
CC1(C)CC(=O)c2c(nn(-c3ccccc3)c2-c2ccncc2)C1,,"inconclusive: 4.11 µM [inhibitor, partial curve, poor fit]"
CCc1ccc(-c2csc(NC(=O)Oc3ccccc3)n2)cc1,,"inconclusive: 5.17 µM [activator, full curve]"
N#C/C(=C\c1cccnc1)c1nc2c(s1)CCCC2,,"inconclusive: 11.6 µM [activator, partial curve]"
Cn1c(=O)n(C)c2cc(NC(=O)CCl)ccc21,,"inconclusive: 18.4 µM [inhibitor, single point]"
Cc1cc(C)c2nc(C)cc(Nc3ccc(C(=O)NCCO)cc3)c2c1,inactive: 1.57%,
CCOC(=O)c1c(C)nc(-c2ccccc2)nc1NC(=O)CC,,"inconclusive: 14.6 µM [activator, partial curve]"
Cc1ccc(Cn2c(=N)n(CC(=O)c3ccccc3)c3ccccc32)cc1,,"inconclusive: 20.6 µM [inhibitor, single point]"
C/C=C/C(=O)OCC(=O)Nc1ccc(OC)c(Cl)c1,inactive: 3.33%,
Cc1cc(C)nc(Nc2n[nH]c(-c3ccccc3Cl)n2)n1,,"inconclusive: 20.6 µM [activator, partial curve]"

SMILES,"activity change, negative = inhibition",Potency
OCCCNC(=S)Nc1ccc(Br)cc1Cl,,"inconclusive: 20.6 µM [activator, partial curve]"
CCN1CCN(c2ncnc3c2c(-c2ccccc2)cn3-c2ccc(F)cc2)CC1,inactive: -12.4%,
COc1ccc(OC)c(/C=N/NC(=O)C(=O)NCc2cccnc2)c1,,"inconclusive: 23.1 µM [inhibitor, partial curve, poor fit]"
O=C(O)c1ccc(Nc2ccc([N+](=O)[O-])c3nonc23)cc1,inactive: 1.31%,
CC(C)N(C(=O)[C@H]1C[C@H](CC(=O)NCc2ccco2)C(=O)N2CCc3c([nH]c4ccc(Cl)cc34)[C@]12C)C(C)C,,"inconclusive: 16.4 µM [inhibitor, partial curve]"
COc1ccc(NC(=O)c2cc3c(s2)CCC3)cc1S(=O)(=O)N1CCOCC1,,"inconclusive: 18.4 µM [inhibitor, single point]"
C(=C\c1ccccc1)/CN1CCN(c2ncnc3c2oc2ccccc23)CC1,,"inconclusive: 29.1 µM [inhibitor, single point]"
COc1ccc(C2=CC(=O)C[C@H](c3ccc(F)cc3)C2)c(F)c1F,,"inconclusive: 29.1 µM [inhibitor, single point]"
COc1ccc(CCn2c(=N)c(C(=O)NCC3CCCO3)cc3c(=O)n4ccccc4nc32)cc1 (configuration not stated),,"inconclusive: 32.6 µM [inhibitor, single point]"
O=C1N(C2CCCC2)C[C@@H]2C[C@@H](c3cn[nH]c3-c3ccc(Cl)cc3)N3CCC[C@@]123,inactive: 11.2%,
COc1ccc(C2=Nn3c(nnc3-c3ccncc3)SC2)cc1,,active: 2.31 µM
CC(C)[C@@H](CO)N(C)S(=O)(=O)c1ccccc1Br,inactive: 13.4%,
NS(=O)(=O)c1ccc(CCNC(=O)c2ccc3c(=O)n4c(nc3c2)CCCCC4)cc1,inactive: -19%,
CN(C)/C=C/C(=O)c1cnc(-c2ccccn2)s1,,"inconclusive: 16.4 µM [activator, partial curve]"
COC(=O)c1ccc(Nc2cc(C)nc(-c3ccccc3O)n2)cc1,,"inconclusive: 6.51 µM [inhibitor, single point]"
Nc1ccccc1SCC(=O)Nc1ccc2c(c1)OCO2,inactive: -5.42%,
NC(=O)c1cc(-c2csc(-c3cccnc3)n2)ccc1O,,"inconclusive: 16.4 µM [activator, single point]"
COc1ccccc1N1CCN(C(=O)c2cc(=O)c3cc(C)cc(C)c3o2)CC1,,"inconclusive: 0.206 µM [inhibitor, full curve, poor fit]"
Cc1ccc(NC(=O)c2sccc2C)cc1[N+](=O)[O-],,"inconclusive: 16.4 µM [activator, partial curve]"
CCCN1CCN(CCCNC(=S)Nc2ccc3nc(N4CCN(CC)CC4)cc(C)c3c2)CC1,,"inconclusive: 25.9 µM [activator, single point]"
Cc1cc2c3c([nH]c2cc1S(=O)(=O)N1CCC2(CC1)OCCO2)CC(C)(C)CC3=O,,active: 20.6 µM
